Binding data for one substance are collected here from publication PMC5908791.

Protein sequences, listed by entry. Tags and fused reporters are not part of them. Lines headed by an entry give the natural chain unless they say otherwise; changes in a name come on top. Chains listed by the source or under a name are the forms on record and can include a tag or linker. Residues count along the entry.
Gallus gallus SOCS1 without its SOCS Box domain (residues 48-164) (A0A8V0ZGP4, form named): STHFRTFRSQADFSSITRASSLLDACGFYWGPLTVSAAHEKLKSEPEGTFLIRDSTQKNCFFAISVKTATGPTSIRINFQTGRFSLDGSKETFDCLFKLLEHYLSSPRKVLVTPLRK

The target of the assay is human JAK1 kinase domain (human) (UniProt P23458). The assay is described as follows: crystal structure; ggSOCS1 48-164 and human JAK1 kinase domain co-expressed in Sf21 and co-purified, with ADP bound; hanging drop, 8 °C, 100 mM HEPES pH 7.0, 14% PEG 8000, 100 mM MgAc; 2.5 Å; both purified.

Results are given in words; binding and its absence hold for the method and conditions named. Some binding calls cover weakened binding; strength is not graded here.

As to “Gallus gallus SOCS1 without its SOCS Box domain (residues 48-164) (from UniProt A0A8V0ZGP4 48-164) (domain or fragment)”, the binding result was “binds”.
